By AC50 is commonly meant the midpoint of the concentration-response curve, whichever way the signal moves.

Drawing on PubChem BioAssay AID493014 (National Center for Advancing Translational Sciences (NCATS), 2011), this text covers AC50 for 62 molecules.

Some of the results follow. Shown are side measurements of this screen, not its main read-out; they come without a call. Most of these compounds were active or inconclusive in the main read-out, so they are no random draw. Words in brackets tell the shape of the fitted curve; partial curves, single points and poor fits give uncertain potencies.

The test can be described thus: qHTS Assay to Find Inhibitors of Chronic Active B-Cell Receptor Signaling. The note with it: ABC-DLBCL IkBa-CBG/CBR reporter, luminescence ratio (green luciferase fused to IkBa over red control in TMD8 lymphoma cells), 4 h. In short, it runs like this: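 Concentration-response series (up to 46 uM) were applied to TMD8 dual-reporter cells for 4 h at 37C with doxycycline. Green/red ratio, after filter-overlap correction, defined %Activity; red signal alone was normalised to basal cells and zero luminescence.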
A general note: In qHTS, concentration-response curves come from the screen itself.

The mark [1] stands for this setting: measured here: CBR red luminescence, cell number.
The mark [2] stands for this setting: measured here: IkBa-CBG green luminescence.

`Cc1ccc2cc(CN(CCO)Cc3nnnn3Cc3ccc(F)cc3)c(=O)[nH]c2c1`: the AC50 under setting [1] is 15.8 µM [falling, partial curve, poor fit].
Turning to `O=C(C1CC(=O)N(c2ccccc2)C1)N1CCN(C2=NS(=O)(=O)c3ccccc32)CC1` (configuration not stated), the AC50 under setting [1] was 0.82 µM [rising, partial curve, poor fit].
Turning to `C[C@H]1C[C@H]2[C@@H]3CCC4=CC(=O)C=C[C@]4(C)[C@@]3(Cl)[C@@H](O)C[C@]2(C)[C@@]1(O)C(=O)CO`, under setting [1], the AC50 was 0.0259 µM [rising, full curve, poor fit].
`COC(=O)C(NC(=O)C(C)Oc1ccccc1)C(C)C` (configuration not stated): the AC50 under setting [1] is 1.16 µM [rising, full curve].
Same read-out and setting: as for `COc1ccc(NC(=O)c2cc3ccccn3n2)cc1`, the figure is 20.6 µM [falling, partial curve]; as for `O=C(c1cccc(-c2ccc(O)cc2)c1)N1CCN(c2ccc(F)cc2)CC1`, 35.5 µM [rising, single point].
In the case of `CCn1c(CN2CCN(Cc3ccc(C)cc3)C(CCO)C2)nc2ccccc21` (configuration not stated), the concentration at half-maximal activity (AC50) under setting [1] is 11.2 µM [falling, single point].
The same measure, in the same setting: to `O=c1[nH]c2cc3c(cc2cc1C(c1nnnn1CC1CCCO1)N1CCCCCC1)OCO3` (configuration not stated) belongs 25.9 µM [rising, single point].
Turning to `CC(C)[C@@H](C(=O)N[C@@H](Cc1ccccc1)C(=O)O)N1C(=O)N2CCc3c([nH]c4ccccc34)[C@@]2(C)C1=O`, the concentration at half-maximal activity (AC50) under setting [1] was 3.55 µM [falling, full curve, poor fit].
As for `COC(=O)c1ccccc1N(C)S(C)(=O)=O`, the AC50 under setting [1] is 0.82 µM [rising, full curve, poor fit].
Same read-out and setting: as for `CCOC(=O)c1c(C)[nH]c(C(=O)COC(=O)CN2C(=O)C3CCCCC3C2=O)c1C` (configuration not stated), the figure is 35.5 µM [falling, single point]; as for `CCOc1ccccc1NC(=O)CCCNC(=O)c1ccc(Cl)cc1`, 10 µM [rising, partial curve, poor fit].
Still for that read-out and setting: to `CSc1nc(Cl)cc(N2CCOCC2)n1` belongs 3.98 µM [falling, partial curve, poor fit].
For the molecule `CCOC(=O)CCCCC(=O)c1[nH]c(=O)[nH]c1CSc1nc2ccccc2[nH]1`, the AC50 under setting [1] was 20.6 µM [rising, partial curve, poor fit].
For the molecule `CCOc1ccccc1N(CC(=O)NC1CCCCC1)C(=O)CCC(=O)Nc1nccs1`, the concentration at half-maximal activity (AC50) under setting [1] was 5.01 µM [falling, full curve, poor fit].
`Cc1cc(C)nc(N/N=C/c2ccccc2)n1`: the half-maximal activity concentration (AC50) under setting [1] was 7.94 µM [falling, partial curve].
Still for that read-out and setting: to `Cc1ccc(OCc2cc(C(=O)N(C)CCc3ccccc3)no2)cc1C` belongs 0.631 µM [rising, full curve, poor fit].
Same read-out and setting: to `O=C(COc1ccc(-c2nnco2)cc1)Nc1c(F)cccc1F` belongs 1.3 µM [falling, full curve, poor fit].
`O=C(Nc1ccc2c(c1)OCO2)c1ccc2c(c1)OCO2`: under setting [1], the AC50 was 11.6 µM [falling, partial curve, poor fit].
On the same count and under the same terms, as for `CNc1nc2c(-c3ccc(Cl)cc3)nnn2c2ccccc12`, the figure is 11.2 µM [rising, partial curve].
`CCOC(=O)Cc1c(Sc2ccccc2)c2ccccc2n1C`: the AC50 under setting [1] was 2.59 µM [falling, partial curve].
As for `COCCCn1c(Cc2ccccc2)nnc1SCC(=O)N1CCCCC1`, the AC50 under setting [1] was 15.8 µM [falling, single point].
Still for that read-out and setting: as for `Cc1ccc(C)c(N2CCN(S(=O)(=O)c3cccc4cccnc34)CC2)c1`, the figure is 15.8 µM [falling, single point]; as for `COCc1nc2ccccc2n1Cc1ccccc1Br`, 7.94 µM [rising, partial curve]; as for `Nc1nc(-c2nc3ccccc3[nH]2)cs1`, 23.1 µM [falling, single point].
Take `O=C(C1CCCN(S(=O)(=O)c2cnc[nH]2)C1)N1CC(=O)N(CCc2ccccc2)C(=O)C1` (configuration not stated): the AC50 under setting [1] was 25.9 µM [rising, partial curve, poor fit].
Same read-out and setting: as for `FC(F)(F)c1cccc(NC(=S)NCC2COc3ccccc3O2)c1` (configuration not stated), the figure is 18.4 µM [falling, single point].
Still for that read-out and setting: to `CN(CC(=O)Nc1ccc(Cl)cc1)C(=O)CNC(=O)c1ccc2ccccc2c1` belongs 3.16 µM [falling, partial curve, poor fit].
Same read-out and setting: to `N/C(=N\OC(=O)COc1ccc2ccccc2c1)c1cccnc1` belongs 2.31 µM [rising, full curve, poor fit]; to `O=C(CC1Nc2ccccc2NC1=O)Nc1ccccc1NC(=O)CC1Nc2ccccc2NC1=O` (configuration not stated), 7.08 µM [rising, partial curve].
For `COc1cccc(OC)c1C(=O)Nc1cccc(-c2nc3ccccc3[nH]2)c1`, the half-maximal activity concentration (AC50) reads like this: under setting [1], 35.5 µM [rising, single point]; under setting [2], 12.6 µM [falling, single point].
As to `COc1ccc2cc(OC)c(C(=O)N3CCOCC3)cc2c1`, the AC50 under setting [1] is 3.55 µM [rising, partial curve, poor fit].
The same measure, in the same setting: to `Cc1occc1C(=O)N1CCN(c2ncccn2)CC1` belongs 32.6 µM [rising, single point].
For `Cc1ccccc1CN(C)CCS(=O)(=O)c1cc(Cl)ccc1Cl`, the AC50 was 35.5 µM [rising, single point] under setting [1] and 22.4 µM [falling, single point] under setting [2].
As for `Cc1ccc2nc(N3C(=O)CNC3=S)sc2c1`, the AC50 under setting [1] was 12.6 µM [falling, single point].
Same read-out and setting: as for `CCN(C[C@H]1N[C@@](Cc2ccccc2)(C(=O)OC)[C@H]2C(=O)N(Cc3ccccc3)C(=O)[C@@H]12)C(=O)Nc1ccc(C)cc1`, the figure is 29.1 µM [falling, single point]; as for `CC(=O)Nc1cccc(NC(=O)c2cccc(OCc3ccccc3)c2)c1`, 35.5 µM [falling, single point]; as for `Cc1ccc(OCCn2cc(Br)c(=O)[nH]c2=O)cc1`, 4.47 µM [rising, full curve, poor fit].
The same measure, in the same setting: to `CC(C)C[C@H](NC(=O)c1nc[nH]c1C(=O)NCC(=O)OCc1ccccc1)C(=O)OCc1ccccc1` belongs 7.08 µM [falling, partial curve, poor fit]; to `CCOC(=O)C1CCCCN1Cc1cccc(F)c1` (configuration not stated), 18.4 µM [falling, single point]; to `COCCCNC(=O)c1ccc(-n2nc(C(F)(F)F)cc2-c2cccs2)cc1`, 23.1 µM [falling, single point].
As for `O=C(CC(Cc1ccccc1)C(=O)O)NCCc1ccc2c(c1)OCO2` (configuration not stated), the half-maximal activity concentration (AC50) under setting [1] was 0.366 µM [rising, full curve, poor fit].
In the case of `Cc1ccccc1NC(=O)CON=C(N)c1ccccc1`, the AC50 under setting [1] is 5.17 µM [falling, partial curve].
In the case of `CC(C)(C)c1cc(OC(=O)C2CCCC2)ccc1O`, the concentration at half-maximal activity (AC50) under setting [2] was 20 µM [falling, partial curve, poor fit].
For `COC(=O)c1ccccc1NC(=O)c1ccc(-c2ccc(Br)cc2)o1`, the AC50 under setting [1] is 0.184 µM [falling, full curve, poor fit].
Consider `CC(=O)c1sc(NC(=O)CCCOc2ccc(Cl)cc2)nc1C`, for which the AC50 under setting [1] was 0.891 µM [rising, full curve, poor fit].
Take `Cc1cc(C)cc(N2C(=O)C3CCCN3C2=S)c1` (configuration not stated): the AC50 under setting [1] was 11.2 µM [rising, partial curve].
Regarding `Cc1ccc2nc(-c3sc4nc(C)ccc4c3N)[nH]c2c1`, the AC50 under setting [2] is 0.92 µM [rising, full curve, poor fit].
In the case of `Oc1ccc(NCc2ccccc2OCc2ccccc2F)cc1`, the AC50 by setting is: under setting [1], 6.31 µM [rising, full curve]; under setting [2], 17.8 µM [falling, single point].
Take `CC(=O)Nc1ccc(NC(=O)C/C(C)=N/NC(N)=S)cc1`: the AC50 is, setting by setting: under setting [1], 14.1 µM [falling, partial curve, poor fit]; under setting [2], 25.1 µM [falling, single point].
For `O=C(O)c1ccc(-n2c(O)c(C=C3N=c4ccccc4=N3)sc2=S)cc1`, the AC50 under setting [1] was 11.2 µM [falling, partial curve, poor fit].
Take `Cc1cc(C(F)(F)F)nn1Cc1ccc(C(=O)NCc2ccco2)o1`: the half-maximal activity concentration (AC50) by setting is: under setting [1], 16.4 µM [falling, partial curve]; under setting [2], 23.1 µM [rising, partial curve, poor fit].
On to `CC(=O)Nc1ccccc1NC(=O)CN(C)S(=O)(=O)c1ccc(C)cc1`, for which the half-maximal activity concentration (AC50) under setting [1] is 6.51 µM [falling, single point].
Turning to `CC(C)n1cc(/C=C2\NC(=O)N(c3cccc(Cl)c3)C2=O)c2ccccc21`, the AC50 under setting [1] was 0.517 µM [falling, full curve, poor fit].
On to `Cc1nc2ccccn2c1C(=O)CSc1cccc(Cl)c1`, for which the AC50 under setting [1] was 35.5 µM [falling, single point].
As to `O=C(Nc1ccc(SC(F)(F)F)cc1)c1ccccn1`, the half-maximal activity concentration (AC50) under setting [1] is 12.6 µM [falling, partial curve].
The same measure, in the same setting: as for `Cn1cc(/C=C/C(=O)c2ccccc2)c2ccccc21`, the figure is 1.26 µM [falling, full curve].
Regarding `COc1ccc2nc3sc(C(=O)N4CCN(C)CC4)cc3cc2c1`, under setting [1], the AC50 was 0.13 µM [falling, full curve, poor fit].
The same measure, in the same setting: to `CCOC(=O)c1ccc(NC(=S)N2CCCC(C(=O)OCC)C2)cc1` (configuration not stated) belongs 12.6 µM [falling, single point]; to `COc1cccc(CN(C)C(=O)CCN(c2ccccc2)S(=O)(=O)c2ccc(C)cc2)c1OC`, 2.31 µM [rising, partial curve, poor fit].
Regarding `Nc1ccc(Cc2nc3c(ccc4ccccc43)[nH]2)cc1`, under setting [1], the AC50 is 17.8 µM [falling, partial curve, poor fit].
The same measure, in the same setting: as for `Cn1c(CCN2CCCCC2)nc2cc([N+](=O)[O-])ccc21`, the figure is 20 µM [falling, single point].
